Results as given in PMC5389796.
These are yes or no findings as the source states them, for the method shown. In cells and extracts the contact can be indirect. Some entries that bind do so weakly or less than the wild type. For some assays here: Where a sequence is shown, tags or fusion partners need not be part of it.

By UniProt entry, the sequences of proteins in these tests, tags left out. Residues count along the entry.
UniProt P10451, residues 17-314: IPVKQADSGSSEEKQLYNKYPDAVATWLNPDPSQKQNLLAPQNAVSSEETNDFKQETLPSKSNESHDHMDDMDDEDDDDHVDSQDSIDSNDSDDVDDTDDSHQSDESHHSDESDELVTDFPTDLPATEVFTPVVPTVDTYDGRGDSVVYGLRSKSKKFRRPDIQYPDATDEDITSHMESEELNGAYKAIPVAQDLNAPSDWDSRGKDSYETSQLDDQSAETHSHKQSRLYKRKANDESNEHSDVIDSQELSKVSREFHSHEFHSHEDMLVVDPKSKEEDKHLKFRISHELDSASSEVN

B1: CLDN10b-V5 (protein, UniProt P78369-1 1-228)
chain: MASTASEIIAFMVSISGWVLVSSTLPTDYWKVSTIDGTVITTATYWANLWKACVTDSTGVSNCKDFPSMLALDGYIQACRGLMIAAVSLGFFGSIFALFGMKCTKVGGSDKAKAKIACLAGIVFILSGLCSMTGCSLYANKITTEFFDPLFVEQKYELGAALFIGWAGASLCIIGGVIFCFSISDNNKTPRYTYNGATSVMSSRTKYHGGEDFKTTNPSKQFDKNAYV

How the values were obtained:
[1] = target: T1, primary islet TALK-1 channels (human (endogenous in human islets)) (UniProt Q96T55); experiment: co-IP; primary human islets (5000 IEQs), RIPA lysate; rabbit anti-TALK-1 immunoprecipitation; blot with mouse anti-iOPN
T1 sequence: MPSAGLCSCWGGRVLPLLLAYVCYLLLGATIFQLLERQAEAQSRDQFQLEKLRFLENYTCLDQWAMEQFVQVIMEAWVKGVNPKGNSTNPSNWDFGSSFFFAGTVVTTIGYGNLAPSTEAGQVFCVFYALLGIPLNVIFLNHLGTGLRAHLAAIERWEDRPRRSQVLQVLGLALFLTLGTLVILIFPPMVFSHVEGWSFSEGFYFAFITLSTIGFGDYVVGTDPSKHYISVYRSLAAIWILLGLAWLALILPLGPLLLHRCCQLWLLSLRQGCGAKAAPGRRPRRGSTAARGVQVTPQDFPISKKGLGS

[2] = target: T2, TALK-1 T3-FLAG (human) (UniProt Q96T55); experiment: co-IP; HEK293 cells co-transfected 48 hrs; RIPA lysate; anti-FLAG M2 with protein A/G magnetic beads overnight at 4°C; eluted with FLAG peptide; blot with anti-V5
T2 sequence: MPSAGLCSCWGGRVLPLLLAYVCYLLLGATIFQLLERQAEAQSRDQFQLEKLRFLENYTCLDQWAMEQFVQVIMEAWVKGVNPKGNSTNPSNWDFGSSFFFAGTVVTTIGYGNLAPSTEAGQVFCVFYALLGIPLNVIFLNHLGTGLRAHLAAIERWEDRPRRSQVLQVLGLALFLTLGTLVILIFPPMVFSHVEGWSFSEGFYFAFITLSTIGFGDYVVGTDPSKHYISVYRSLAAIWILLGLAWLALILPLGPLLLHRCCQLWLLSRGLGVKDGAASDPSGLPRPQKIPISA

| Molecule | binding [1] | binding [2] |
| --- | --- | --- |
| iOPN of human islets (from UniProt P10451 17-314) | binds |  |
| B1 |  | binds |
